Measurements: PubChem BioAssay AID1347076 (National Center for Advancing Translational Sciences (NCATS), 2019)
About 13,000 (3.2%) of roughly 400,000 compounds were called active. This list was built around the results that the source calls inconclusive (neither active nor inactive); the mix of calls is not that of the screen. The call rests on the fitted dose curve; in most records, active means well fitted cell-killing curve with a large enough effect; inconclusive means small, poorly fitted or top-dose-only effect, or effect the other way; inactive means flat fitted curve, though single readings scatter. Where the call is inconclusive, the potency comes from a doubtful curve fit.
On the % scale 0 is the no-effect control and ±100 the full control effect; potency means the concentration at half of the fitted maximal effect.

Assay: qHTS assay for MDR1-selective chemotherapeutics: Primary screen using the drug-selected MDR subline cells KB-V1; further: nearly all actives have a fitted effect of over 60% in size
Settings: KB-V1 MDR cells viability, CellTiter-Glo, 72 h; activity change, negative = cytotoxicity: at 46.1 µM (top of the series)
Outline: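 In this primary screen, KB-V1 cells overexpressing P-gp are incubated with library compounds (lowest to highest concentration) for 72 h at 37 degrees C before a luminescent ATP viability read.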
In the case of `CCOc1ccccc1NC(=O)Cn1nnc(C(=O)NCc2ccco2)c1N`, the Potency is reported as active: 0.259 µM.
With `N#CCCn1cc(/C=C2\NC(=S)N(c3ccccc3)C2=O)c(-c2ccc(-c3ccccc3)cc2)n1` the “activity change, negative = cytotoxicity” value was inactive: 10.9%.
With `COCCn1c(CN2CCc3ccccc3C2)nc2c1c(=O)n(C)c(=O)n2C` the Potency was inconclusive: 16.4 µM [cytotoxic, single point].
For `CC(C)C1COC(c2cccc3ccccc23)=N1` (stereo unspecified), the Potency was inconclusive: 9.2 µM [rising, partial curve, poor fit].
With `CCC(=O)Nc1ccc(C2=Nn3c(nnc3C(C)C)SC2)cc1` the Potency was inconclusive: 16.4 µM [rising, single point].
In the case of `CC(=O)N1CCN(C(=O)c2cc3ccccc3o2)CC1`, the activity change, negative = cytotoxicity is reported as inconclusive: 31.9%.
In the case of `CCNC(=S)NS(=O)(=O)c1ccc(Cl)cc1`, the “activity change, negative = cytotoxicity” value is reported as inactive: 20.8%.
In the case of `O=C1NC(=O)C(Cc2c[nH]c3ccccc23)N1` (stereo unspecified), the “activity change, negative = cytotoxicity” value is reported as inactive: 17.6%.
For `CCN(CC(=O)Nc1c(F)cccc1F)C(=O)c1ccc(S(=O)(=O)N2CCCCC2)cc1`, the Potency was inconclusive: 16.4 µM [cytotoxic, single point].
With `COc1ccc([N+](=O)[O-])cc1NC(=O)Cc1noc2ccccc12` the Potency was inconclusive: 18.4 µM [cytotoxic, single point].
In the case of `CCN1CCc2nc(NC(=O)c3ccccc3)sc2C1`, the Potency is reported as inconclusive: 11.6 µM [cytotoxic, partial curve, poor fit].
For `CN(C)/C=C1\C=C2C(=O)c3ccccc3N2C1=O`, the Potency was inconclusive: 1.46 µM [cytotoxic, single point].
With `CN(C(=O)COC(=O)/C=C/c1ccc(C(F)(F)F)cc1)c1c(N)n(Cc2ccccc2)c(=O)[nH]c1=O` the “activity change, negative = cytotoxicity” value was inactive: 18.2%.
With `CC(=O)Nc1ccc(C(=O)N2CCc3cc4c(cc3C2C)OCCCO4)cc1` (stereo unspecified) the “activity change, negative = cytotoxicity” value was inactive: 0%.
In the case of `Cc1cc(C)c(C)c(OCCOCCN2CCOCC2)c1`, the “activity change, negative = cytotoxicity” value is reported as inactive: -24.1%.
For `CCC(=O)c1c[nH]c(C(=O)NCCCN2CCOCC2)c1`, the Potency was inconclusive: 13 µM [rising, partial curve].
In the case of `COc1ccc(Nc2nc(OC)nc(N3CCOCC3)n2)cc1`, the “activity change, negative = cytotoxicity” value is reported as inactive: -4.13%.
In the case of `COc1ccccc1NC(=O)c1sc2nc(C)cc(C)c2c1N`, the “activity change, negative = cytotoxicity” value is reported as inactive: -3.96%.
In the case of `Cc1nnc(SC(C)C(=O)Nc2ccc(N3CCOCC3)cc2)n1Cc1ccccc1` (stereo unspecified), the “activity change, negative = cytotoxicity” value is reported as inactive: -4.2%.
In the case of `CCN(CC)CCN(Cc1cc2cc(C)cc(C)c2[nH]c1=O)C(=S)NCc1ccco1`, the Potency is reported as inconclusive: 23.1 µM [cytotoxic, single point].
In the case of `O=C(O)c1ccc(OS(=O)(=O)c2ccc(Cl)s2)cc1`, the Potency is reported as inconclusive: 11.6 µM [rising, partial curve, poor fit].
In the case of `CCOc1ccc(CC(=O)Nc2c(C(=O)Nc3ccc(OC)cc3OC)oc3ccccc23)cc1`, the “activity change, negative = cytotoxicity” value is reported as inactive: 0%.
With `CCNC(=O)c1cc2c(c(-c3cccc(-c4ccccc4F)c3)n1)[C@H](CCO)N(C(=O)CC)C2` the Potency was active: 18.4 µM.
For `Cc1cc(=O)n(C)c(=O)n1CCCCOc1ccc([N+](=O)[O-])cc1`, the Potency was inconclusive: 13 µM [cytotoxic, partial curve].
With `COc1ccc(CCNC(=O)CSc2nc(O)c(CC(C)C)c(=O)[nH]2)cc1OC` the “activity change, negative = cytotoxicity” value was inactive: 0%.
In the case of `Cc1ccc(CNC(=O)CCc2ccc(S(=O)(=O)NCC(C)C)cc2)cc1`, the Potency is reported as inconclusive: 10.3 µM [cytotoxic, partial curve].
With `Cn1c(=O)c2c(SCC(=O)NCc3ccco3)nc(-c3cccc(F)c3)nc2n(C)c1=O` the Potency was inconclusive: 32.6 µM [rising, single point].
For `O=C(CCCOc1ccc(Cl)cc1Cl)Nc1ccncc1`, the Potency was inconclusive: 18.4 µM [cytotoxic, single point].
For `COc1cc(CNC(=O)CCn2nc(C)c3c(C)n(-c4ccccc4)nc3c2=O)cc(OC)c1OC`, the Potency was inconclusive: 20.6 µM [rising, single point].
In the case of `Cn1nc(-c2ccccc2)c2cc(C(=O)O)sc21`, the Potency is reported as inconclusive: 20.6 µM [cytotoxic, single point].
In the case of `COc1ccc(-c2nc3cc(C)ccn3c2NC(=O)c2ccc(F)cc2)cc1`, the “activity change, negative = cytotoxicity” value is reported as inactive: -4.44%.
In the case of `CCc1nc2ccccc2n1CC(O)COCC1CC=CCC1` (stereo unspecified), the “activity change, negative = cytotoxicity” value is reported as inactive: -10.7%.
In the case of `Cc1ccccc1C(=O)Nc1nnc(-c2cccnc2)o1`, the Potency is reported as inconclusive: 29.1 µM [cytotoxic, single point].
For `O=C(Nc1cccc(S(=O)(=O)NC2=NCCCCC2)c1)c1ccc(Cl)cc1`, the Potency was inconclusive: 23.1 µM [cytotoxic, partial curve, poor fit].
For `CC(=O)N/N=C(\C)C1COc2ccccc2O1` (stereo unspecified), the Potency was inconclusive: 18.4 µM [cytotoxic, single point].
In the case of `Cc1[nH]c2ccccc2c1C(=O)Cn1c(=O)oc2ccccc21`, the Potency is reported as active: 16.4 µM.
For `Cc1ccc(S(=O)(=O)CCC(=O)NCc2ccc(Cl)cc2)cc1`, the “activity change, negative = cytotoxicity” value was inactive: -2.49%.
With `O=C(Nc1cccnc1)c1ccc(CSc2ccccc2)cc1` the Potency was inconclusive: 18.4 µM [cytotoxic, single point].
In the case of `CCN(CC(=O)Nc1c(F)cccc1F)C(=O)C1CC(=O)N(CCc2ccccc2)C1` (stereo unspecified), the “activity change, negative = cytotoxicity” value is reported as inactive: 1.52%.
In the case of `CN(c1nc2c(c(=O)n(C)c(=O)n2C)n1CC(=O)c1ccccc1)C1CCCCC1`, the Potency is reported as inconclusive: 10.3 µM [cytotoxic, partial curve, poor fit].
With `COc1ccc(N2C(=O)CS(=O)(=O)C23C(=O)N(Cc2ccc(F)cc2)c2ccc(C)cc23)cc1` (stereo unspecified) the Potency was inconclusive: 29.1 µM [cytotoxic, single point].
For `COc1ccccc1CNC(=O)CSc1nc2nc(C)c(Cc3ccccc3Cl)c(C)n2n1`, the “activity change, negative = cytotoxicity” value was inactive: -1.37%.
For `Cc1ccc(C(=O)c2cn[nH]c2-c2cc(Cl)ccc2O)cc1`, the Potency was inconclusive: 16.4 µM [cytotoxic, single point].
With `NNc1ncnc2scc(-c3ccc(Cl)cc3)c12` the Potency was inconclusive: 29.1 µM [cytotoxic, single point].
For `O=C(/C=C/c1cccc(O)c1)c1cccnc1`, the Potency was inconclusive: 0.0231 µM [rising, full curve].
With `CC(C)CNC(=O)c1ccccc1NC(=O)c1ccc(CSc2ccccc2)cc1` the Potency was active: 13 µM.
In the case of `CCOc1ccc(N(CC(=O)NC2CC2)S(=O)(=O)c2ccc(C)cc2)cc1`, the “activity change, negative = cytotoxicity” value is reported as inactive: -4.2%.
In the case of `Cc1noc(C)c1S(=O)(=O)N1CCCC(C(=O)Nc2ccc(Cl)cn2)C1` (stereo unspecified), the Potency is reported as inconclusive: 20.6 µM [cytotoxic, single point].
With `COc1cc(C(Nc2ccccn2)c2ccc3ccc(C)nc3c2O)cc(OC)c1O` (stereo unspecified) the Potency was active: 16.4 µM.
With `CN(CCOc1ccccc1)CC(=O)Nc1ccc([N+](=O)[O-])cc1Cl` the Potency was inconclusive: 18.4 µM [cytotoxic, single point].
In the case of `Cc1cccc(NC(=O)c2ccc(C3SCC(=O)N3CCc3ccccc3)cc2)c1C` (stereo unspecified), the Potency is reported as inconclusive: 16.4 µM [cytotoxic, single point].
With `CCCCCCCCN1C(=O)[C@H](CC(=O)NCc2cccc(C(F)(F)F)c2)C[C@@]2(C(=O)OC)CCCCC=C12` the Potency was active: 16.4 µM.
In the case of `Cc1cc(C)c2c(=O)[nH]c(SCC(=O)NCCc3ccccc3)nc2n1`, the Potency is reported as inconclusive: 0.116 µM [cytotoxic, full curve].
For `O=C(CC(O)c1ccncc1)c1ccccc1O` (stereo unspecified), the Potency was inconclusive: 29.1 µM [cytotoxic, single point].
For `CS(=O)(=O)N(CC(=O)Nc1ccccc1C(=O)NCc1ccco1)c1ccc2c(c1)OCCO2`, the Potency was inconclusive: 18.4 µM [cytotoxic, partial curve, poor fit].
For `CC(=O)[C@@]1(O)CC[C@H]2[C@@H]3C[C@H](C)C4=CC(=O)CC[C@]4(C)[C@H]3CC[C@@]21C`, the Potency was inconclusive: 23.1 µM [cytotoxic, partial curve, poor fit].
For `COc1ccc(CCNC(=O)c2cccc(-n3cnc4cccnc43)c2C)cc1OC`, the “activity change, negative = cytotoxicity” value was inactive: 12.5%.
In the case of `CCOC(=O)C1CCCN(C(=O)CNC(=O)c2ccc(Br)o2)C1` (stereo unspecified), the “activity change, negative = cytotoxicity” value is reported as inactive: 4.02%.
With `CC1(C(=O)NCCC#N)CCN1C(=O)Cc1ccc(-c2ccccc2)cc1` (stereo unspecified) the Potency was inconclusive: 14.6 µM [cytotoxic, partial curve, poor fit].
With `O=C1CSC(c2ccccn2)N1c1cccc(Cl)c1` (stereo unspecified) the Potency was inconclusive: 10.3 µM [cytotoxic, partial curve, poor fit].
With `COc1ccc(N(CC(=O)NCC2CCCO2)S(=O)(=O)c2ccc(C)cc2)cc1OC` (stereo unspecified) the Potency was active: 20.6 µM.
For `C=CCNC(=O)C1CC1(c1ccc(C)cc1)c1ccc(C)cc1` (stereo unspecified), the Potency was inconclusive: 13 µM [cytotoxic, partial curve].
For `COc1cc(OC)c(C(=O)OCC(=O)N2CCOCC2)cc1OC`, the “activity change, negative = cytotoxicity” value was inactive: -3.7%.
With `Cc1ccc(NC(=O)Cc2nc(COC(=O)Cc3cccc(C(F)(F)F)c3)cs2)cc1` the “activity change, negative = cytotoxicity” value was inactive: -2.59%.
With `CCOc1ccc(CCN2C(=O)C(=O)N([C@@H](Cc3ccc(O)cc3)CN3CCC[C@H]3CN3C(=O)C(=O)NC[C@@H]3Cc3ccccc3)C[C@@H]2Cc2ccc(O)cc2)cc1` the “activity change, negative = cytotoxicity” value was inactive: -9.66%.
In the case of `COc1ccc(C(=O)NC(c2ccco2)c2cc(Cl)c3cccnc3c2O)cc1` (stereo unspecified), the Potency is reported as inconclusive: 8.2 µM [cytotoxic, partial curve, poor fit].
For `COc1ccc(-c2nn(-c3ccccc3)cc2C(=O)N/N=C/c2ccc([N+](=O)[O-])o2)cc1`, the Potency was inconclusive: 25.9 µM [cytotoxic, single point].
In the case of `CCCCCc1ccc(OCCCC[n+]2ccccc2)c(CCCCC)c1`, the Potency is reported as inconclusive: 20.6 µM [rising, single point].
With `Cc1ccccc1CNC(=O)c1cccc(NC(=O)N2CCSc3ncccc32)c1` the “activity change, negative = cytotoxicity” value was inactive: -6.64%.
In the case of `CCC(=O)NCc1nc2ccccc2n1Cc1ccccc1F`, the Potency is reported as active: 23.1 µM.
With `COc1ccc(-c2cc(NC=O)c3ncc(-c4ccc(C(C)=O)cc4)n3c2)cc1OC` the Potency was inconclusive: 29.1 µM [cytotoxic, single point].
